Results on one molecule are retold here after doi:10.1101/2025.03.28.645892.

Sequences of proteins named here, by UniProt entry; tags and fusion partners are left off. A change or cut given only in a name is not applied to a line headed by its entry.
UniProt P54609: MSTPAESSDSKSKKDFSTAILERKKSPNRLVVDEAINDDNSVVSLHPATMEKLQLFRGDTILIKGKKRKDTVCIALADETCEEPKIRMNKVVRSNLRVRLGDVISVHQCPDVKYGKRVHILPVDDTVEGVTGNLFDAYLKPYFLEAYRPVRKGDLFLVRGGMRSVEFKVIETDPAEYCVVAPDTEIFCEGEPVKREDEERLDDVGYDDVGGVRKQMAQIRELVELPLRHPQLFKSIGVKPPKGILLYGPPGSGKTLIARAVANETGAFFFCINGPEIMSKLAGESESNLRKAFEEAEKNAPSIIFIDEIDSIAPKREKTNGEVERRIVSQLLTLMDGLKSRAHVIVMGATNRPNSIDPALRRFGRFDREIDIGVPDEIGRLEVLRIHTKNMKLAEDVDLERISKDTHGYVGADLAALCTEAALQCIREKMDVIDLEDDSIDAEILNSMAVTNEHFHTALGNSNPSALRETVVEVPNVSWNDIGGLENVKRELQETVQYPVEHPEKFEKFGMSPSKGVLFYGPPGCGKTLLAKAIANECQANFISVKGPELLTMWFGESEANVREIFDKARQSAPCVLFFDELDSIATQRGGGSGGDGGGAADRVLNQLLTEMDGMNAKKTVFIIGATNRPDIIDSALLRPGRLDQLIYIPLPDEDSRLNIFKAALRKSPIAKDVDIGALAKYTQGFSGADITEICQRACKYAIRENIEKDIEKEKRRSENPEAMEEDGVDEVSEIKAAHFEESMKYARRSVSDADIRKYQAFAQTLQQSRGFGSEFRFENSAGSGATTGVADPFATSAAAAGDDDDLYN

Experiment [1] deals with T1, Arabidopsis thaliana NPL4 (Arabidopsis thaliana) (UniProt O82264).
T1 sequence (chain, Alexa-488 dye label in the MST experiments only): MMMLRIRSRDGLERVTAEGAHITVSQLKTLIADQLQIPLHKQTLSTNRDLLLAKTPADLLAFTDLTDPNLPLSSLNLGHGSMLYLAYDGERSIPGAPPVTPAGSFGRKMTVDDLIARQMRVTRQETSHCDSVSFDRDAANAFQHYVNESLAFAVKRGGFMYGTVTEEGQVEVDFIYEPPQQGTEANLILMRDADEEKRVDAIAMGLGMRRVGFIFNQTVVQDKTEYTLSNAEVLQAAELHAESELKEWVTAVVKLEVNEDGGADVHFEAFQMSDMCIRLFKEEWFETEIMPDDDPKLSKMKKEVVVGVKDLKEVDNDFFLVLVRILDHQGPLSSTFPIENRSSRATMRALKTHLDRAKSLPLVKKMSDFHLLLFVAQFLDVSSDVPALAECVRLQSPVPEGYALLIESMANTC
As to the kind of experiment: MST.

In experiment [2] the target is T1, Arabidopsis thaliana NPL4 (Arabidopsis thaliana). As to the kind of experiment: SEC-MALS. (In gel filtration, larger molecules generally elute earlier.)
Experiment [3] addresses T2, AtCDC48A saturated with AtNPL4 (Arabidopsis thaliana) (UniProt P54609+O82264). Nature of the experiment: ITC. (Isothermal titration calorimetry measures the heat released or taken up as one component is titrated into another.)
For experiment [4], the target named is T1, Arabidopsis thaliana NPL4 (Arabidopsis thaliana). Nature of the experiment: MST. This is another data set of the same source.
In experiment [5] the target is T2, AtCDC48A saturated with AtNPL4 (Arabidopsis thaliana). Nature of the experiment: MST.
Experiment [6] deals with T1, Arabidopsis thaliana NPL4 (Arabidopsis thaliana). Nature of the experiment: SEC-MALS. This is another data set of the same source.

Results are given in words; binding and its absence hold for the method and conditions named. Some results given as binding are weak or reduced against the parent protein; the word gives no strength.

B1: Arabidopsis thaliana UFD1B (protein, UniProt Q9SJV0 1-340)
chain: MVLRFCCHLLTYSVSLLPPITMFFDGYHYHGTTFEQSYRCYPASFIDKPQLESGDKIIMPPSALDRLASLHIDYPMLFELRNAGIERVTHCGVLEFIAEEGMIYMPYWMMQNLLLQEGDIVRVRNVTLPKGTYVKLQPHTTDFLDISNPKAILETALRNYSCLTSGDSIMVPYNNKKYFIDIVETKPANAISIIETDCEVDFAPPLDYKEPERPTAPSAAKGPAKAEEVVDEPEPKFNPFTGSGRRLDGRPLAYEPAPASSSKGKQPVVANGNGQSSVASSSEKATRAQGKLVFGANGNRAPKEAAPKVGAAKETKKEEQEKKDEPKFQAFSGKKYSLRG
As to B1, the binding entry in experiment [1] is “no binding”; in experiment [2] it was “no binding”; in experiment [3], “binds”; in experiment [4] it was “no binding (tested: Kd > 200 µM)”; in experiment [5] it was “binds”; in experiment [6], “no binding”.
